No constants are given. Whether binding was seen depends on the method and setting. Binding seen in cells or lysates may run through a third protein. A result given as binding can be weak or reduced; the word gives no strength.

Sequences of proteins named here, by UniProt entry; tags and fusion partners are left off. A change or cut given only in a name is not applied to a line headed by its entry.
UniProt P63330: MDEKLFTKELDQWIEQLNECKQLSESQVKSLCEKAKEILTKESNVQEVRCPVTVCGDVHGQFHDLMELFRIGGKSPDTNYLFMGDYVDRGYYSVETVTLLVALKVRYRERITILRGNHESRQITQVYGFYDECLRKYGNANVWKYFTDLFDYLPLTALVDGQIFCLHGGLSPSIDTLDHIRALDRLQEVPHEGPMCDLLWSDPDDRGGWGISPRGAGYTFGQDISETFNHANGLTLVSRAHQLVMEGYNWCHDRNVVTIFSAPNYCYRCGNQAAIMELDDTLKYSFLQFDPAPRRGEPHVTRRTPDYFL

The values below come from paper doi:10.1101/2021.05.11.443650.

In this experiment the target is T1, phospholamban (mouse (endogenous in mouse heart)) (UniProt P61014).
T1 sequence: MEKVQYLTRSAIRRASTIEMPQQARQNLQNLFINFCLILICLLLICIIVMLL
Nature of the experiment: co-IP.

In the case of “protein phosphatase 2A (from UniProt P63330) (enzyme)”, the binding result is listed as “binds”.

Consider “protein phosphatase 1 (mouse (endogenous in mouse heart)) (enzyme)”, for which the binding entry is listed as “binds”.
